According to paper PMC13217735:
These are yes or no findings as the source states them, for the method shown. Binding seen in cells or lysates may run through a third protein. Some results given as binding are weak or reduced against the parent protein; the word gives no strength.

Protein sequences, listed by entry. Tags and fused reporters are not part of them.
UniProt O15169: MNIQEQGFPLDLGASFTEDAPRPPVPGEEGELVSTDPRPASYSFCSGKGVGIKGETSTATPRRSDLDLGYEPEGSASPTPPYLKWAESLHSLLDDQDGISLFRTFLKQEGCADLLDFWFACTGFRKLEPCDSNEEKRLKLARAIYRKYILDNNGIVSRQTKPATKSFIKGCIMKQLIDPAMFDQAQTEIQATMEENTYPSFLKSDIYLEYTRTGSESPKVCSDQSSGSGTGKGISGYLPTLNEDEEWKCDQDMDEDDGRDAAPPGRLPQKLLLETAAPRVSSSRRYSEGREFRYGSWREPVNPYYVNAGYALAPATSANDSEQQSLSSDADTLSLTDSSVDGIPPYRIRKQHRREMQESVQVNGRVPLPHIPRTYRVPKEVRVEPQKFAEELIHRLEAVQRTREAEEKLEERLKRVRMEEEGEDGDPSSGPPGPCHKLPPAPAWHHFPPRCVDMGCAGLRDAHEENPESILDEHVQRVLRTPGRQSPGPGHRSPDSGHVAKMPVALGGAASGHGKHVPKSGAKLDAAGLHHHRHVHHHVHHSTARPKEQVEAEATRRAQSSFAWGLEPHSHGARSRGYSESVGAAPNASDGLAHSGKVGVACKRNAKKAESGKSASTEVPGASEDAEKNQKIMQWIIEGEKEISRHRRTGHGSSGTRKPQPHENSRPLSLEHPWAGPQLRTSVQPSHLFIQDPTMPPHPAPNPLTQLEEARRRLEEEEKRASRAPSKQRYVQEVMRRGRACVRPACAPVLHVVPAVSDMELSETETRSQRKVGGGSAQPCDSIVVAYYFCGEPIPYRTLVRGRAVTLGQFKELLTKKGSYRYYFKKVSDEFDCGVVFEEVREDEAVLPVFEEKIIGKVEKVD
UniProt P35222: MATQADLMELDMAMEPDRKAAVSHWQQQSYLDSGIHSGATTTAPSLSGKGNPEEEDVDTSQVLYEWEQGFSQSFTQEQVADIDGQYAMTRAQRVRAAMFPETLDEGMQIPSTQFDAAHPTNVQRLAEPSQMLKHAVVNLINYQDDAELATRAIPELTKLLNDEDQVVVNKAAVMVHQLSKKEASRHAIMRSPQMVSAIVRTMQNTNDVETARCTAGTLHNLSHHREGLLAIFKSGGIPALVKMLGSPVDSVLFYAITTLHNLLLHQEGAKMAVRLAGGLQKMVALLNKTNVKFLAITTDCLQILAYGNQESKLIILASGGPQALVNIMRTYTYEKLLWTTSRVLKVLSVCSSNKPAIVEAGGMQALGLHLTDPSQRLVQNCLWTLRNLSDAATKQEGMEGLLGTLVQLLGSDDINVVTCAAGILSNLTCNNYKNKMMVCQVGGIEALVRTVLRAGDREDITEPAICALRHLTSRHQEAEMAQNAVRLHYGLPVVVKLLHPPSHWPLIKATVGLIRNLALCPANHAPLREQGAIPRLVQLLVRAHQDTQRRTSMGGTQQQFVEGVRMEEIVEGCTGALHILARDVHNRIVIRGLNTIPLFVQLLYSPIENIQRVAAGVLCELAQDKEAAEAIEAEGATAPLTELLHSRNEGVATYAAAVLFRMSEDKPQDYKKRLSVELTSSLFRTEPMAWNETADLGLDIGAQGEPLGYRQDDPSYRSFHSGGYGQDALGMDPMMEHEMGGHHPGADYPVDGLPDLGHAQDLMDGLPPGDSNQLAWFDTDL

Target: AXIN1 (human (endogenous in HCT116)) (UniProt O15169)
Assay: co-IP; HCT116 lysate (20 mM Tris-HCl, 130 mM NaCl, 10% glycerol, 2 mM EDTA, 1% Triton X-100); AXIN1 or GSK3B antibody on Dynabeads Protein G overnight at 4 °C, six washes with PBS 0.01% Tween-20, immunoblot; cells treated with MEK1/2 or GSK3 inhibitor or DMSO

Substance: beta-catenin (from UniProt P35222 1-781)
- binding: binds
